# Assay results published in PubChem BioAssay AID2551 (National Center for Advancing Translational Sciences (NCATS), 2010).
# Protein sequences, listed by entry. Tags and fused reporters are not part of them. Lines headed by an entry give the natural chain unless they say otherwise; changes in a name come on top.
# UniProt P51450: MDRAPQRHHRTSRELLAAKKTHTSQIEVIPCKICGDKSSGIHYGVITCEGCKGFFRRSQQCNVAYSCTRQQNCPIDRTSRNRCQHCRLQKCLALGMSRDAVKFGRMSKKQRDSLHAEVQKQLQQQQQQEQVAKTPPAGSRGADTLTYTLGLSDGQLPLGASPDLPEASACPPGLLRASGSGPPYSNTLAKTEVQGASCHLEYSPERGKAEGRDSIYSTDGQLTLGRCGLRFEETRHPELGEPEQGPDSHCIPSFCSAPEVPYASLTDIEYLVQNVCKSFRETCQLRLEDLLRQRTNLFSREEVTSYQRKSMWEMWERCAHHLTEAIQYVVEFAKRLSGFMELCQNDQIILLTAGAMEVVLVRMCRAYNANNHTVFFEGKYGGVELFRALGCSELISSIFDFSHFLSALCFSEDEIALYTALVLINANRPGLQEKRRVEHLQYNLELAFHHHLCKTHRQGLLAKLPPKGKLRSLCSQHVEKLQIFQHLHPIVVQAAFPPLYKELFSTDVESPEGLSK
# Among all 310,000 compounds or so, about 17,000 (5.5%) were called active. The inconclusive results got no clear call from the source; some entries with a clear call stand among them for comparison. Calls come from the whole dose curve; as a rule, active = well fitted inhibition curve with a large enough effect; inconclusive = small, poorly fitted or top-dose-only effect, or effect the other way; inactive = no such curve, though single readings can be large or run the other way. A potency beside an inconclusive call is a rough fit, not a confirmed value.
# Target: Nuclear receptor ROR-gamma (Mus musculus) (UniProt P51450)
# Experiment: qHTS for inhibitors of ROR gamma transcriptional activity; note: nearly all actives have a fitted effect of over 60% in size
# Settings: Drosophila S2 Gal4-RORgamma UAS-luciferase reporter, 20 h; series mostly up to 53.6 µM
# Summary of the method: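 A Gal4/UAS one-hybrid system in insect cells: metallothionein-promoter Gal4–ROR gamma fusion plus Photinus luciferase reporter. Copper sulfate 700 uM final, 20 hr ambient incubation, luminescent detection after 10 min with reagent.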
# Potency is the fitted concentration of half-maximal effect.
row,SMILES,Potency
1,CNC(=S)N/N=C(\C)c1ccc(-n2ccnc2)cc1,active: 8.91 µM
2,CC(C)c1cc(NCCCN2CCOCC2)n2c(nc3ccccc32)c1C#N,"inconclusive: 35.5 µM [inhibitor, single point]"
3,COc1ccc(OC)c(Nc2ncnc3c2cnn3-c2cccc(C)c2)c1,"inconclusive: 3.98 µM [activator, single point]"
4,CC1=CC(C)(C)Nc2cc(C)c(C)cc21,inactive
5,O=C(C1=C[C@H](c2ccccc2)C[C@H](OCc2ccc(CO)cc2)O1)N1CCN(Cc2ccc3c(c2)OCO3)CC1,inactive
6,CCOC(=O)c1cnn(-c2cccc(Cl)c2)c1N,"inconclusive: 20 µM [activator, single point]"
7,CCS(=O)(=O)Nc1ccc(C2=NN(C(C)=O)C(c3cccs3)C2)cc1 (centres undefined),"inconclusive: 12.6 µM [activator, partial curve]"
8,COc1ccccc1NC(=S)N/N=C1\CC(C)(C)Oc2ccc(O)cc21,"inconclusive: 2 µM [inhibitor, partial curve]"
9,S=c1[nH]nc(CCSCc2ccccc2)n1-c1ccccc1,active: 2.82 µM
10,COC(=O)C1=C(C)N(Cc2ccccc2)C(=NCc2ccc(OC)cc2)N[C@H]1c1ccc(Br)cc1,inactive
11,Cc1cc(C)nc(N2N=C(C(C)(C)C)CC2=O)n1,"inconclusive: 12.6 µM [inhibitor, partial curve, poor fit]"
12,CCc1ccc(OCCCC(=O)NCc2ccccc2)cc1,"inconclusive: 35.5 µM [activator, single point]"
13,CCC[C@@H]1CCCO[C@@](C(=O)NCc2ccc(S(C)(=O)=O)cc2)(C(F)(F)F)C1,"inconclusive: 10 µM [activator, partial curve]"
14,O=C(CSC1=NCCS1)Nc1nc2ccccc2s1,"inconclusive: 2.51 µM [activator, single point]"
15,O=C(Nc1ccsc1C(=O)O)c1cccc(Oc2ccccc2)c1,"inconclusive: 10 µM [inhibitor, single point]"
16,Clc1ccccc1CO/N=C1\CCCc2nonc21,inactive
17,Cc1c(Cl)cccc1NC(=S)NC1CCCC1,active: 4.47 µM
18,S=c1[nH]c(-c2ccc(Cl)cc2)cs1,active: 7.08 µM
19,Cc1ccccc1Oc1ccc(Oc2ccccc2C)nn1,inactive
20,CCC1CC(CSc2ncn[nH]2)OC1=O (centres undefined),inactive
21,Cc1cc(Nc2ccc(Br)cc2)nc(-c2ccccc2O)n1,"inconclusive: 22.4 µM [activator, single point]"
22,O=c1nc2ccccc2c2n1CC(CN1CCN(c3ccc(F)cc3)CC1)N2 (centres undefined),"inconclusive: 12.6 µM [activator, partial curve]"
23,NC(=O)C(c1ccc(Br)cc1)c1ccc(C(=O)c2ccccc2)cc1 (centres undefined),"inconclusive: 12.6 µM [activator, single point]"

row,SMILES,Potency
1,COc1ccc(S(=O)(=O)N2CCCCC2)cc1NC(=O)Cc1c[nH]c2ccccc12,"inconclusive: 3.16 µM [activator, single point]"
2,CCC(=O)c1ccc(Oc2ccc(C(=O)c3ccc(C)cc3)cc2[N+](=O)[O-])cc1,"inconclusive: 1.26 µM [activator, partial curve]"
3,Cc1ccc(OCc2cc(C(=O)NC(C)Cc3cccnc3)no2)cc1C (centres undefined),"inconclusive: 2.24 µM [activator, full curve, poor fit]"
4,Cc1cc(C)cc(N(C(=O)c2ccc(Br)o2)C2C=CS(=O)(=O)C2)c1 (centres undefined),inactive
5,COc1cc(C2CC(=O)Nc3n[nH]c(-c4ccccc4)c32)cc(OC)c1OC (centres undefined),inactive
6,Cc1cccc(N(CC(=O)NC2CCCC2)C(=O)CCCC(=O)Nc2ccccn2)c1,"inconclusive: 3.16 µM [inhibitor, partial curve, poor fit]"
7,CC(=O)Nc1ccc(S(=O)(=O)Nc2ccc3c(c2)C(=O)OC3)cc1,"inconclusive: 0.01 µM [activator, full curve, poor fit]"
8,Cc1cccc(C)c1NC(=O)CSc1nnc(CCCCCNC(=O)OC(C)(C)C)o1,"inconclusive: 10 µM [activator, partial curve]"
9,Cc1cccc(OCCSc2nc3c([nH]2)c(=N)ncn3Cc2ccccc2)c1,"inconclusive: 0.0056 µM [activator, full curve, poor fit]"
10,NS(=O)(=O)c1ccc(CCNC(=O)CSc2nc3ccccc3c(=O)n2CCC(=O)N2CCCCC2)cc1,inactive
11,CCCn1c(=O)c(C(=O)NNC(=O)c2ccccc2Cl)c(O)c2ccccc21,active: 11.2 µM
12,Cc1ccccc1Nc1nc(N)c2ccccc2n1,"inconclusive: 11.2 µM [inhibitor, partial curve]"
13,CC(=O)NS(=O)(=O)c1ccc(NC(=O)c2cc(-c3ccc(C)cc3)nc3ccccc23)cc1,"inconclusive: 12.6 µM [activator, single point]"
14,COc1cc(OC)cc(C(=O)Nc2ccccc2-c2nnn(CC(=O)Nc3cc(C)on3)n2)c1,"inconclusive: 11.2 µM [inhibitor, single point]"
15,Cc1ccc(CNC(=O)c2ccc3nc4[nH]c5ccccc5c4nc3c2)cc1,"inconclusive: 15.8 µM [inhibitor, single point]"
16,CCC(=O)NC(=S)Nc1ccccc1OC,"inconclusive: 10 µM [inhibitor, partial curve, poor fit]"
17,COc1ccc(/C=C2/SC(=S)N(CCCC(=O)Nc3cccc(O)c3)C2=O)cc1,active: 0.316 µM
18,CCCc1c(O)nc(SCC(=O)NCc2ccco2)[nH]c1=O,inactive
19,CCC(CC)C(=O)N1N=C(c2ccc(NS(C)(=O)=O)cc2)CC1c1ccc(C)cc1 (centres undefined),"inconclusive: 35.5 µM [activator, single point]"
20,CCCn1nnc(NC(=S)NC(=O)c2ccc(-c3ccc(Br)cc3)o2)n1,active: 0.794 µM
21,CC(C)C[C@@H](C(=O)NCc1ccco1)N1C(=O)N2CCc3c([nH]c4ccccc34)[C@@]2(C)C1=O,"inconclusive: 10 µM [activator, partial curve]"
22,O=C(NCCc1ccccn1)c1ccc(OC(F)F)cc1,"inconclusive: 35.5 µM [inhibitor, single point]"
23,CNC(=O)c1cc2ccccc2o1,"inconclusive: 0.282 µM [inhibitor, partial curve, poor fit]"

# Five entries drawn at random from those above, as already listed:
row,SMILES,Potency
22,O=c1nc2ccccc2c2n1CC(CN1CCN(c3ccc(F)cc3)CC1)N2 (centres undefined),"inconclusive: 12.6 µM [activator, partial curve]"
23,NC(=O)C(c1ccc(Br)cc1)c1ccc(C(=O)c2ccccc2)cc1 (centres undefined),"inconclusive: 12.6 µM [activator, single point]"
12,Cc1ccccc1Nc1nc(N)c2ccccc2n1,"inconclusive: 11.2 µM [inhibitor, partial curve]"
19,Cc1ccccc1Oc1ccc(Oc2ccccc2C)nn1,inactive
18,CCCc1c(O)nc(SCC(=O)NCc2ccco2)[nH]c1=O,inactive

# (cont.)

row,SMILES,Potency
1,COc1ccccc1NS(=O)(=O)c1cccc(C(=O)N/N=C/c2cn(-c3ccccc3)nc2-c2ccccc2)c1,active: 1.58 µM
2,O=C(NCc1ccncc1)c1nnc(Cc2c(F)cccc2Cl)o1,"inconclusive: 15.8 µM [activator, single point]"
3,Cc1ccc(C)c(OCCn2c(=O)c3c(ncn3C3CCCC3)n(Cc3ccccc3)c2=O)c1,"inconclusive: 17.8 µM [activator, single point]"
4,Cc1csc(NC(=O)CSc2nnc(-c3ccncc3)o2)n1,"inconclusive: 35.5 µM [inhibitor, single point]"
5,COc1ccc(OCCSc2nnc(CCNC(=O)c3ccc(Cl)c(Cl)c3)n2C)cc1,"inconclusive: 35.5 µM [activator, partial curve, poor fit]"
6,C=C(C)COc1ccc(-c2ncnc(C(F)(F)F)c2-c2ccccc2)c(O)c1,inactive
7,S=C(NCCN1CCOCC1)Nc1ccc(Cl)c(Cl)c1,"inconclusive: 20 µM [inhibitor, single point]"
8,COc1cccc(N2CCN(c3cnc4ccccc4n3)CC2)c1,"inconclusive: 12.6 µM [activator, partial curve]"
9,COc1cc(/C=N/NC(=O)c2cc(-c3cccn3C)n[nH]2)cc(OC)c1OC,"inconclusive: 3.98 µM [inhibitor, single point]"
10,COc1ccc(S(=O)(=O)N2CCC(O)(c3ccc(Cl)cc3)CC2)cc1,"inconclusive: 25.1 µM [activator, single point]"
11,CCC(C)(C)c1ccc(OCCCC[n+]2cccc(C)c2)c(C(C)(C)CC)c1,"inconclusive: 35.5 µM [inhibitor, single point]"
12,CC(=O)Oc1ccccc1C1OCCN1C(C)=O (centres undefined),inactive
13,O=C(/C=C/c1ccc([N+](=O)[O-])s1)N1CCCCC1,active: 11.2 µM
14,CCOc1ccc2nc(NC(=O)CSc3nc4ccccc4c(=O)n3Cc3ccco3)sc2c1,inactive
15,COc1cccc(/C=C(\CC(=O)O)c2nc3ccccc3s2)c1,inactive
16,C[C@@H](c1ccccc1)N1C(=O)[C@H]2[C@@H]3[C@H](O)C=CC(=O)[C@H]3CC[C@H]2C1=O,"inconclusive: 3.16 µM [inhibitor, single point]"
17,Nc1ccc2c(c1)C(=O)N(CCCC(=O)O)C2=O,"inconclusive: 7.94 µM [inhibitor, partial curve]"
18,CC1(C)OC(=O)N(c2cccnc2)C1(C)O (centres undefined),"inconclusive: 35.5 µM [activator, single point]"
19,CCOc1ccc(C(c2c(NC(=O)c3ccccc3)sc(C)c2C)N2CCN(C)CC2)cc1 (centres undefined),"inconclusive: 35.5 µM [inhibitor, single point]"
20,O=C(CN1CCN(S(=O)(=O)c2ccc(F)cc2)CC1)Nc1cccc(C(F)(F)F)c1,"inconclusive: 22.4 µM [activator, single point]"
21,O=C(NCCNC(=O)c1ccccn1)c1ccc(-c2ccccc2)cc1,"inconclusive: 7.08 µM [activator, partial curve]"
22,Cc1ccc(C(=O)N/C(=C/c2ccco2)C(=O)NCCc2c[nH]c3ccccc23)cc1,"inconclusive: 31.6 µM [activator, single point]"
23,COc1ccc(COc2ccccc2C(=O)Nc2ccccn2)cc1[N+](=O)[O-],inactive
